## Library screen at single concentrations

Amino acid sequences for entries named in this document (tags omitted). Residues count along the entry.
UniProt Q4DA54, 1-478: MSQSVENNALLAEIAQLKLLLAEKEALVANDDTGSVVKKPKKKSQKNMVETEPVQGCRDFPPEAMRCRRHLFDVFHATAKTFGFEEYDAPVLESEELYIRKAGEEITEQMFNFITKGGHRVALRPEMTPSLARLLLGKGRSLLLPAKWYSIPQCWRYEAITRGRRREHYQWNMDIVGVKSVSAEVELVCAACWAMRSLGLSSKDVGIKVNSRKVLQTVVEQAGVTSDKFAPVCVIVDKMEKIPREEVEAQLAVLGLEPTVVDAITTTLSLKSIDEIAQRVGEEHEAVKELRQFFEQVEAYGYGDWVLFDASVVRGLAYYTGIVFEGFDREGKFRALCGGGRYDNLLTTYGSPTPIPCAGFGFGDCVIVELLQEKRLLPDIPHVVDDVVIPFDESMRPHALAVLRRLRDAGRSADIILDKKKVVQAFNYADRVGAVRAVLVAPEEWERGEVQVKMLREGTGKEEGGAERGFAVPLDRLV
UniProt A4I591, 1-473: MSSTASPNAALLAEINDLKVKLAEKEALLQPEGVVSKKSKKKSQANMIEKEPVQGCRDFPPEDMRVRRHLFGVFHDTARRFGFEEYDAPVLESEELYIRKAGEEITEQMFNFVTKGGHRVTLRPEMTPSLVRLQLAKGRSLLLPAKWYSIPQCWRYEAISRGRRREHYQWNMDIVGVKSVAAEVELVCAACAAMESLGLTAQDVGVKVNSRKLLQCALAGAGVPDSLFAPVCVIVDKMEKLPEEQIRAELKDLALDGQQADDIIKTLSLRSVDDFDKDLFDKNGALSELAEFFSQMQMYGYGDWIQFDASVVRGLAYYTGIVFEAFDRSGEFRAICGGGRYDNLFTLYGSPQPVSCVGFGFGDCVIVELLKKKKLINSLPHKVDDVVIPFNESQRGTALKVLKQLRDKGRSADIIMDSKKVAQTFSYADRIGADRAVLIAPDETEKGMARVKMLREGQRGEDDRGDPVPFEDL

From ChEMBL document CHEMBL3988442, “University of Dundee, Small-Polar-MMV Screening Library” (2021).

Toxoplasma: 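Assay of Toxoplasma gondii numbers, read through their beta-galactosidase reporter with a colour substrate. Concentration: 10 µM. The record gives no direction; the compounds picked for IC50 retests had high values, so higher reads as fewer parasites. Size under these conditions: about 67,000 compounds, about 260 of them at 50% or above in at least one test.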
TcHisRS: 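Enzyme assay of histidyl-tRNA synthetase; the read-out is not stated. Target: Histidine-tRNA ligase, Trypanosoma cruzi CL Brener (UniProt Q4DA54). Tested at 30 µM. Direction is inferred from retests: higher values go with stronger inhibition. About 69,000 compounds were tested under these conditions; 0.045% (about 31) showed 50% or more at least once.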
LiHisRS: 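Enzyme assay of histidyl-tRNA synthetase; the read-out is not stated. Target: Histidine-tRNA ligase, Leishmania infantum (UniProt A4I591). Tested at 30 µM. Direction is inferred from retests: higher values go with stronger inhibition. The assay is labelled LdHisRS but filed under L. infantum. About 69,000 compounds were tested under these conditions; 0.6% (about 410) showed 50% or more at least once.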
T. brucei: 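Whole-parasite assay of Trypanosoma brucei over 72 hours; the read-out is not stated. Compounds at 30 µM. Direction is inferred from retests: higher values go with stronger inhibition. Values scatter widely below zero; nearly all retest evidence comes from the higher of the two concentrations used. Of about 64,000 compounds tested this way, about 940 (1.5%) reached 50% or more in at least one test.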

Results are given as percent effect.
The controls that fix the scale are not given in the record; negative values are as filed.
Compounds were drawn at random from those tested, without regard to their results.
A dash means the value is not listed here; it may have been measured.

SMILES,Toxoplasma,TcHisRS,LiHisRS,T. brucei
CCN(C(=O)CCc1ccc2c(c1)OCO2)C1CC(=O)NC1=O (centres unmarked),-10.58,-1.657,14.46,-4.343
Cc1ccc(-c2ccnc(N3CCC4(CCO4)CC3)n2)c(C)n1,-1.218,10.71,15.56,-15.78
CN(CC(=O)N(C)C1CC1)C1CCN(c2ccc(Cl)cc2)CC1,-13.1,-1.205,-2,-20.39
CCCc1nc(CN2CCCN(Cc3nccn3C)CC2)no1,5.859,1.695,12.07,4.748
Cc1nc(C)n(C2CCCN(C(=O)c3ccc4[nH]nnc4c3)C2)n1 (centres unmarked),-4.416,10.79,22.02,-
CCOc1cc(CNc2cc(-c3nc(C)no3)ccn2)ccc1OC,5.982,7.843,15,-26.38
CC[C@@H](C)[C@@H](N)C(=O)Nc1cccc(-c2cnc(N)nc2)c1,-15.3,4.52,17.14,-21.58
COC(=O)c1cnn(-c2cc(Oc3cccc(C)c3)ncn2)c1N,25.94,7.018,3.571,-30.06
Cn1ccc(C(=O)N2CCC(Cc3cnc4[nH]ccc4c3)CC2)n1,-0.3203,3.784,16.67,16.26
Cc1cccc(Cl)c1NC(=O)Cn1cc(C(=O)O)ccc1=O,8.546,-2.273,18.33,-8.786
[H][C@]12CN(C)CCN1C(=O)N(C1CCOCC1)C2,-4.239,-,-,-32.1
COC(=O)N1CCC(CNS(=O)(=O)c2cnn(C)c2)CC1,-6.649,2.439,10.17,-12.81
Cc1noc(CNC(=O)NCCc2ccc(Cl)cc2)n1,2.809,6.952,1.571,-31.64
CCOc1cc(CNCc2ncc[nH]2)c(Cl)cc1OC(C)C,19.56,-3.59,14.29,4.294
CCOc1ccc(C(F)(F)F)cc1NC(=O)N1CCNC(=O)C1,13.91,3.982,23.89,-2.599
Cn1nc(CNC(=O)NCc2ccc(Cl)cc2)c2c1CCOC2,-11.42,0,10.68,35.98
CC(C)n1nc(Cn2cccn2)c2c1CN(C1CCOC1)C2 (centres unmarked),-,6.897,15.79,-
CC1(C)CCN1C(=O)c1cc(F)cc2[nH]cnc12,-,6.931,15.22,22.68
COc1ncc(CN2CCC3(CCCN(CC4CCC4)C3)C2)cn1 (centres unmarked),-4.692,9.901,14.29,-4.762
Cc1nc(C2CCCN2CC(=O)N(C)Cc2ccsc2)no1 (centres unmarked),-1.244,6.433,12.73,-17.87
CC(C)=CCN1CCN(C(=O)C2CCS(=O)(=O)C2)CC1 (centres unmarked),3.488,0.5525,10.42,0.6409
CN(C)CCN(C(=O)Cc1ccc2c(c1)OCCO2)C1CCN(C)CC1,-,8.791,10.14,-
CC(C)c1nc(NS(=O)(=O)c2ccccc2Cl)no1,4.506,1.554,5.618,-12.38
CCCN1CCC=C(C2c3nc[nH]c3CCN2C(=O)c2ccco2)C1 (centres unmarked),-19.13,8.8,8.197,-16.54
c1coc(CN2CCC3(CC2)COCCN(CCN2CCCC2)C3)c1,-,9.816,18.8,-
N#Cc1ccc(NC(=O)N2CCCCC2CN2CCCC2=O)cc1 (centres unmarked),-5.762,4.202,17.54,-17.86
O=C(NCc1cccnc1)C1=NN(c2ccccc2)C(=O)CN1,4.838,-3.39,22.64,71.31
CCS(=O)(=O)CC(=O)Nc1c(C)cnn1Cc1cc(F)ccc1F,-,11.49,14.52,-8.685
CCNC(=O)c1ccc(NC(=O)N(C)Cc2cc(C)on2)c(C)c1,12.14,-0.8696,1.667,-31.42
N#Cc1ccc(CNC(=O)NC2CCN(CC(F)F)CC2)cc1,4.732,-0.8475,22.64,18.01
O=C(CC1COCCN1)N1CCC(N2CCc3ccccc3C2)CC1 (centres unmarked),-9.58,5.82,30.67,-21.58
Cc1ccc2[nH]c(=O)cc(C(=O)NCCCn3nccc3C3CC3)c2c1,-3.951,2.703,8.547,-22.69
Cc1ccc2c(n1)N(CCN(C)C)CCN(C(=O)c1ccsc1)C2,-2.833,6.122,19,-19.14
COCCNc1nnc(S(=O)(=O)CCC(C)(C)C#N)s1,-2.801,0,0,-18.33
COC[C@@]12CCO[C@@H]1CCN(Cc1ccc(C)s1)C2,-,0,-2,-
COc1ccc([C@@H]2CN(C(=O)CCCc3cn[nH]c3)C[C@H]2N(C)C)cc1,5.62,4.762,15.5,-8.493
Cc1cc(C(=O)N2CCN(c3nc4c(C(C)C)cccc4s3)CC2)on1,83.09,18,21.74,-5.031
COc1ccc(C(=O)NCC2CCCN(C3CCOCC3)C2)c(O)c1 (centres unmarked),13.29,-0.8696,11.67,-37.16
Cc1cc(N2CCC(c3ncc[nH]3)CC2)c2ccccc2n1,-12.46,8.287,33.73,31.19

The last 3 entries again:

SMILES	Toxoplasma	TcHisRS	LiHisRS	T. brucei
Cc1cc(C(=O)N2CCN(c3nc4c(C(C)C)cccc4s3)CC2)on1	83.09	18	21.74	-5.031
COc1ccc(C(=O)NCC2CCCN(C3CCOCC3)C2)c(O)c1 (centres unmarked)	13.29	-0.8696	11.67	-37.16
Cc1cc(N2CCC(c3ncc[nH]3)CC2)c2ccccc2n1	-12.46	8.287	33.73	31.19